Several values for one entry are separate records, joined by “and”; a condition that tells them apart may be missing. Equal values may be shown once. Screen size: about 390,000 compounds; about 820 (0.21%) were called active. The shares of active, inactive and inconclusive entries below differ from those in the screen. The call rests on the fitted dose curve; in most records, active means well fitted inhibition curve with a large enough effect; inconclusive means small, poorly fitted or top-dose-only effect, or another doubt; inactive means no such curve, though single readings can be large or run the other way. Potencies beside an inconclusive call are fits to weak or partial responses and may not hold up.
target: Histone acetyltransferase KAT2A (Homo sapiens) (UniProt Q92830); assay: qHTS Assay for Inhibitors of GCN5L2; settings: GCN5L2 HAT assay, ThioGlo1 CoA-SH fluorescence; activity change, negative = inhibition: at 58.9 µM (top of the series) unless noted
Method in brief: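 Titration-based screen in which CoA formation is detected via maleimide probe ThioGlo1 (50uM) turning fluorescent on thiol reaction; substrates H3(1-25) 75uM and acetyl-CoA 70uM, GCN5L2 20nM, 20 min incubation at room temperature.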
On the % scale 0 is the no-effect control and ±100 the full control effect; potency means the concentration at half of the fitted maximal effect.

Sequences of proteins named here, by UniProt entry; tags and fusion partners are left off.
UniProt Q92830, whole entry, looked up: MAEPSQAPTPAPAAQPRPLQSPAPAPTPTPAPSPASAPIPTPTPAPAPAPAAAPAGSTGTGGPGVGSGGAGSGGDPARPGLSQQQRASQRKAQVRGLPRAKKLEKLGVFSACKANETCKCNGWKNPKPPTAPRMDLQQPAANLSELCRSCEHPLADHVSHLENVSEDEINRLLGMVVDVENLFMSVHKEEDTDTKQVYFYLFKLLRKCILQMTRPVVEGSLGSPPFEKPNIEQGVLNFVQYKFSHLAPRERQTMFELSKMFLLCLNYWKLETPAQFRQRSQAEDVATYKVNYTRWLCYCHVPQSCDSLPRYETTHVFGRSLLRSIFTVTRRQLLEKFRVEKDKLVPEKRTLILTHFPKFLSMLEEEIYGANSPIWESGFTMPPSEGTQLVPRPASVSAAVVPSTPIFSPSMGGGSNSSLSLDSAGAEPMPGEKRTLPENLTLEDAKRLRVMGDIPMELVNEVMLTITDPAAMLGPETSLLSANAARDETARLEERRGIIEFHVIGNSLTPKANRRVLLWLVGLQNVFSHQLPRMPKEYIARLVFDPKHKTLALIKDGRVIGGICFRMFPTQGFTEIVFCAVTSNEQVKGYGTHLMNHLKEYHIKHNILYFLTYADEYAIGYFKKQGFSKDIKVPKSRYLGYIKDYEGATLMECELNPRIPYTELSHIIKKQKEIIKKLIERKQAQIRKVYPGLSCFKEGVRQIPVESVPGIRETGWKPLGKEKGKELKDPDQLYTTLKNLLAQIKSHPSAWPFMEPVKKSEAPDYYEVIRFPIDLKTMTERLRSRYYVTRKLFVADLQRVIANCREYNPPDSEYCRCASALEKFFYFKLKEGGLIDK

Compound	Potency	activity change, negative = inhibition
Cc1noc(C)c1CSCC(=O)Nc1cc(Cl)ccc1N1CCCCC1	inactive	
COc1ccc(CC(=O)NNC(=O)c2cc(Cl)ccc2OC)cc1	inconclusive: 25.1 µM [inhibitor, single point]	
Cc1nc2cc(-c3ccsc3-n3c(C)ccc3C)[nH]n2c(=O)c1Cl	inconclusive: 31.6 µM [inhibitor, single point]	
CCOC(=O)N/N=C(C)/C=C/c1ccccc1	inactive	
O=C(NCC1CCCN(C2Cc3ccccc3C2)C1)c1cccs1 (stereo not given)	inconclusive: 28.2 µM [inhibitor, single point]	
CCN(c1ccccc1)c1nnc(NC(=O)Nc2ccccc2F)s1	inactive	
COc1ccc(NC(=S)NNC(=S)Nc2cccc(C(F)(F)F)c2)cc1	inconclusive: 39.8 µM [inhibitor, single point]	
CC(C)(C)NC(=O)C[C@H]1C[C@H](C(=O)N2CCOCC2)[C@@]2(CCC3CCCC3)c3[nH]c4ccc(Cl)cc4c3CCN2C1=O	inconclusive: 39.8 µM [inhibitor, single point]	
Nc1ccc2nn(-c3cccc4ccccc34)nc2c1	inconclusive: 12.6 µM [inhibitor, partial curve]	
Cc1cc(C(F)(F)F)nn1CC(=O)NCc1ccco1	inconclusive: 8.91 µM [inhibitor, single point]	
O=C1CC(c2ccc3c(c2)OCO3)Sc2nc3ccccc3n21 (stereo not given)	inconclusive: 3.98 µM [inhibitor, single point]	
COC(=O)CSc1nc2c(c(-c3ccco3)c1C#N)CCCC2	inconclusive: 31.6 µM [inhibitor, single point]	
Cc1cc(O)c(C(C)C)cc1N=C1CSC(=O)N1	inactive	
CCCCc1ccc(N=N/C(C(=O)Nc2ccccc2OC)=C(/C)O)cc1	inactive	
COc1ccc(CCNc2nc(-c3sc(C)nc3C)cs2)cc1OC		inconclusive: -60.8% [inhibitor]
O=S(=O)(c1ccc2c(c1)CCC2)N1CCNCC1	inactive	
Nc1ccc(C(=O)N/N=C/c2cn(Cc3ccccc3F)c3ccccc23)cc1	inconclusive: 0.891 µM [inhibitor, full curve, poor fit]	
CCOC(=O)N1CCN(C(=O)c2cc3c(-c4cccc(OC)c4)nn(C)c3s2)CC1	inconclusive: 0.794 µM [inhibitor, single point]	
CC(C)Cc1ccc(-c2cc(=O)[nH][nH]2)cc1	inactive	
CN(C)c1ccc(/C=C2/C(=O)Nc3ccccc32)cc1		inconclusive: -34.7% [inhibitor] [at 0.501 µM]
CCCCCCn1c(SCCCC)nc2c1c(=O)[nH]c(=O)n2C	inactive	
COc1ccccc1CN1CCNC(=O)C1CC(=O)N(C)CC1CCOCC1 (stereo not given)	inconclusive: 3.16 µM [inhibitor, partial curve]	
CS(=O)(=O)c1ccc(Oc2ccc(-c3nnco3)cc2)c([N+](=O)[O-])c1	inconclusive: 35.5 µM [inhibitor, single point]	
Clc1ccccc1-c1cc(NCCN2CCOCC2)ncn1	inconclusive: 35.5 µM [inhibitor, single point]	

Structures above that contain a CF3 group, in the order listed:
Compound	Potency	activity change, negative = inhibition
COc1ccc(NC(=S)NNC(=S)Nc2cccc(C(F)(F)F)c2)cc1	inconclusive: 39.8 µM [inhibitor, single point]	
Cc1cc(C(F)(F)F)nn1CC(=O)NCc1ccco1	inconclusive: 8.91 µM [inhibitor, single point]	

(cont.)

Compound	Potency	activity change, negative = inhibition
CC(=O)N(C)/C=C1\Sc2ccccc2C1=O	inconclusive: 0.631 µM [inhibitor, single point]	
COc1cc(C(=O)Sc2ccc(Cl)cc2)cc(OC)c1OC	inconclusive: 0.708 µM [inhibitor, single point]	
Cc1ccccc1OCCn1c(CCNC(=O)C(C)(C)C)nc2ccccc21	inactive	
Cc1ccc(C(=O)NCC(c2cccs2)S(=O)(=O)c2cccs2)cc1 (stereo not given)	inactive	
S=c1[nH]nc(-c2ccccc2)n1Cc1ccccc1	inactive	
COc1ccccc1/C=C/c1nc(C#N)c(N(C)C)o1	inconclusive: 39.8 µM [inhibitor, single point] and inconclusive: 17.8 µM [inhibitor, partial curve]	
N=C(N)S/C=C\C(=O)O	inconclusive: 35.5 µM [inhibitor, single point] and inconclusive: 39.8 µM [inhibitor, single point]	
CCn1c(SCC(=O)Nc2ccc(OC)cc2)nc2c(c1=O)SCC2	inconclusive: 3.55 µM [inhibitor, partial curve]	
O=C(CSc1nc2ccccc2c(=O)n1Cc1ccccc1)Nc1ccc(Br)cc1C(=O)O	inconclusive: 35.5 µM [inhibitor, single point]	
CCOC(=O)CSC1=C(C#N)C(c2ccccc2OCC)C(C#N)C(=O)N1 (stereo not given)	inconclusive: 20 µM [inhibitor, partial curve]	
C#CCCCCCCCCCCCc1ccco1	inconclusive: 39.8 µM [inhibitor, single point]	
O=C1C(=O)N(C2CCN(S(=O)(=O)c3ccc(F)cc3)CC2)CCN1Cc1ccccc1	inactive	
CC(C)Oc1cccc(C(=O)NC(=S)Nc2ccc3c4c(cccc24)CC3)c1	inconclusive: 39.8 µM [inhibitor, single point]	
Cc1ccc(C2(c3noc(CN4CCC(c5ccncc5)CC4)n3)CCCC2)cc1	inconclusive: 0.141 µM [inhibitor, full curve, poor fit]	
COc1ccc(-c2csc3ncn(-c4ccccc4)c(=O)c23)cc1OC	inconclusive: 7.08 µM [inhibitor, single point]	
COc1ccc(-n2nc3ccc(N)cc3n2)cc1Cl	inconclusive: 25.1 µM [inhibitor, single point]	
O=C(CS(=O)(=O)Cc1ccccc1)N1CCN(c2ccccc2F)CC1	inconclusive: 39.8 µM [inhibitor, single point]	
COc1ccc(CNC(=O)Cn2c(SCC(=O)Nc3ccc(C)c(C)c3)nc3ccccc32)cc1	inactive	
CCC(=O)N1c2ccccc2NC2=C(C(=O)CC(c3ccco3)C2)C1c1ccco1 (stereo not given)	inactive	
O=C(c1cccc(-n2cccc2)c1)N1CCN(S(=O)(=O)c2ccccc2)CC1	inconclusive: 10 µM [inhibitor, partial curve]	
COc1ccc(-n2nc(C(=O)Nc3cccc(C(F)(F)F)c3)c3c4ccccc4n(C)c3c2=O)cc1	inactive	
CC(C)(C)C1=Nn2c(nnc2-c2ccccn2)SC1	inactive	
Cc1ccc(C(=O)c2ccccc2C(=O)OCC(=O)NC(=O)NC(C)(C)C)cc1	inconclusive: 39.8 µM [inhibitor, single point]	
Cc1ccc(-c2nc(-c3nccc4ccccc34)oc2-c2ccccc2)cc1	inconclusive: 31.6 µM [inhibitor, partial curve, poor fit]	

Compound	Potency	activity change, negative = inhibition
C/C(=N\NC(=O)c1ccccc1C)c1cccnc1	inconclusive: 1 µM [inhibitor, single point]	
CN(CCO)c1ccc(C=NNc2ccc([N+](=O)[O-])cc2S(=O)(=O)Nc2ccccc2C(=O)O)cc1	inconclusive: 39.8 µM [inhibitor, single point]	
NNC(=O)c1csc(Cc2c(Cl)sc3ccc(Cl)cc23)n1	inactive	
CC1CCCC(NC(=S)NC(=O)c2ccco2)C1C (stereo not given)	inactive	
CCOc1cc(C(=O)N2CCc3cc(OC)c(OC)cc3C2)ccc1OC(F)F	inconclusive: 0.447 µM [inhibitor, full curve, poor fit]	
CCOc1ccc(NC(=O)Nc2ccc3c(c2)CCC3)cc1	inconclusive: 0.631 µM [inhibitor, single point]	
N#CCCNC(=O)CCN1CCCCC1	inconclusive: 35.5 µM [inhibitor, single point]	
CC1CN(C(=O)CCC(=O)NCc2cccnc2)c2ccccc2O1 (stereo not given)	inconclusive: 1 µM [inhibitor, single point]	
Cc1cc(C)c2nc(-c3ccco3)cc(C(=O)O)c2c1	inconclusive: 39.8 µM [inhibitor, single point]	
C=CCN(c1cccc(C(F)(F)F)c1)S(=O)(=O)c1cccc(C(=O)OCC(=O)Nc2ccccc2)c1	inactive	
O=C1/C(=C\c2cc([N+](=O)[O-])ccc2O)SC(=S)N1Cc1ccc(Cl)cc1	inactive	
O=c1cc(-c2ccccc2)nc(N2CCCCC2)[nH]1	inconclusive: 6.31 µM [inhibitor, single point]	
Cc1ccc(NS(=O)(=O)c2cccc(C(=O)N3CCCC(C)C3)c2)cc1 (stereo not given)	inconclusive: 7.08 µM [inhibitor, full curve, poor fit]	
CCC(C)c1ccccc1N1CC(C(=O)Nc2ccccc2N2CCCC2)CC1=O (stereo not given)	inconclusive: 35.5 µM [inhibitor, single point]	
COC(=O)C(CCSC)NC(=O)Cn1ncc2c(=O)oc3ccccc3c21 (stereo not given)	inconclusive: 31.6 µM [inhibitor, single point]	
COC(=O)Cc1c(C)c2ccc(O)c(CN3CCCC(C)C3)c2oc1=O (stereo not given)	inconclusive: 39.8 µM [inhibitor, single point]	
COc1ccc(N2CCN(S(=O)(=O)c3c(C)nc4scc(C)n4c3=O)CC2)cc1	inconclusive: 39.8 µM [inhibitor, single point]	
Cc1noc(NS(=O)(=O)c2ccc(N/C=C\C(=O)c3cccc4ccccc34)cc2)c1C	inconclusive: 39.8 µM [inhibitor, single point]	
CCN(CC(=O)NCc1ccc(F)cc1)C(=O)CN1CCN(c2ccc(OC)cc2)CC1	inactive	
CCOC(=O)c1sc2nccc(OC)c2c1N=CN(C)C	inactive	
Cc1cc(C)n(-c2cccc(CN(C)Cc3nc(-c4cnccn4)no3)c2)n1	inconclusive: 35.5 µM [inhibitor, single point]	
CCCC12CN3CC(C)(CN(C1)C3c1ccc3c(c1)OCO3)C2=O (stereo not given)	inconclusive: 7.08 µM [inhibitor, single point]	

An excerpt from above in order of molar mass, ascending:
Compound	Potency	activity change, negative = inhibition
O=c1cc(-c2ccccc2)nc(N2CCCCC2)[nH]1	inconclusive: 6.31 µM [inhibitor, single point]	
CN(C)c1ccc(/C=C2/C(=O)Nc3ccccc32)cc1		inconclusive: -34.7% [inhibitor] [at 0.501 µM]
COc1ccc(NC(=S)NNC(=S)Nc2cccc(C(F)(F)F)c2)cc1	inconclusive: 39.8 µM [inhibitor, single point]	

Reference: PubChem BioAssay AID504327 (National Center for Advancing Translational Sciences (NCATS), 2011)
